Laboratory results as given in patent publication US20230295338A1.
No constants are given. Whether binding was seen depends on the method and setting. Binding calls can cover weak binding; strength is not graded here.

By UniProt entry, the sequences of proteins in these tests, tags left out. Where a name states a change or a piece, a line headed by the entry shows the natural chain unless it says otherwise.
UniProt P06731: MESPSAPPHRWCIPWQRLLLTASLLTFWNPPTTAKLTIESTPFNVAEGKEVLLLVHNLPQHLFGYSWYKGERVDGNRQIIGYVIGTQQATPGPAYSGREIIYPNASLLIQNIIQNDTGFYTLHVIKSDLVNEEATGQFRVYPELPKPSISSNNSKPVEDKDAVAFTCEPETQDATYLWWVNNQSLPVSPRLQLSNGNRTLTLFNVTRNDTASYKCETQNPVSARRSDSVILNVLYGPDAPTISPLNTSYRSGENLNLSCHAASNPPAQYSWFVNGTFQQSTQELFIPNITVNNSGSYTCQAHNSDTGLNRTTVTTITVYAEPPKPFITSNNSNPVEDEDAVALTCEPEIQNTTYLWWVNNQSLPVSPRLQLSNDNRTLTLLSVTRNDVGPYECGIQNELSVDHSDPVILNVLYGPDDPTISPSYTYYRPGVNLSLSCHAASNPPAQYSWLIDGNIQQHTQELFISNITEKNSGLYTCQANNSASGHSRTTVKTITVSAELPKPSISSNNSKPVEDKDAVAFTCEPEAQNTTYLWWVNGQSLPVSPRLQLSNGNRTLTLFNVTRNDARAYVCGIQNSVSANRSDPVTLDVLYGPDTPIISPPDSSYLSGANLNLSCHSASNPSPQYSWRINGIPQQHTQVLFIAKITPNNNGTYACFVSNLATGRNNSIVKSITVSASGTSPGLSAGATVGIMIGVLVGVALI

Target: human CEACAM5 (human) (UniProt P06731)
Test: flow cytometry on CHO transfectants

B1: CC1/3/5-Sab (antibody, V domains shown)
VH: EVQLQQSGPELVKPGTSVKMSCKASGYTFTTYVMHWVQQKPGQGLDWIGFFNPYNDGTKYNEKFKGKATLTSDKSSSTAYMELSSLTSEDSAVYYCARWAYDGSYAYWGQGTTLTVSS
VL: DIQMTQSSSYLSVFLGGRVTITCKASDHINNWLAWYQQKPGNAPRLLISGATSLETGVPSRFSGSGSGKDYTLSIISLQTEDVATYYCQQYWRTPFTFGSGTKLEIK
binding: binds
